{"source": "PubChem BioAssay AID504834", "about": "(National Center for Advancing Translational Sciences (NCATS), 2011)", "note": "Among all 320,000 compounds or so, about 22,000 (6.9%) were called active. Inconclusive means that the source gave no clear call. Such entries were picked first, then a sample of the others. Calls come from the whole dose curve; as a rule, active = well fitted inhibition curve with a large enough effect; inconclusive = small, poorly fitted or top-dose-only effect, or another doubt; inactive = no such curve, though single readings can be large or run the other way. Potencies beside an inconclusive call are fits to weak or partial responses and may not hold up. Potency is the fitted concentration of half-maximal effect."}
{"assay": "Primary qHTS for delayed death inhibitors of the malarial parasite plastid, 96 hour incubation", "conditions": "P. falciparum luciferase reporter growth; series mostly up to 28.7 µM", "method_in_brief": "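Infected RBCs, 2% Hct / 0.05% parasitemia final; luciferase-reporter P. falciparum; cpd 96 h, 37 C, 5% CO2; luciferase detection reagent; luminescence.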"}
{"smiles": "CCN(CC(=O)NCCc1ccc(Cl)cc1)Cc1nc2ccccc2c(=O)[nH]1", "Potency": "inconclusive: 13.1 µM [inhibitor, single point]"}
{"smiles": "COC(=O)C1=C(C)N(C)C(=O)NC1c1cc2c(cc1[N+](=O)[O-])OCO2", "note": "(configuration not stated)", "Potency": "inconclusive: 14.7 µM [inhibitor, single point]"}
{"smiles": "C#CC(=O)N(c1cccc(OC)c1)C(C(=O)NC1CCCC1)c1cccs1", "note": "(configuration not stated)", "Potency": "inconclusive: 3.29 µM [inhibitor, partial curve, poor fit]"}
{"smiles": "Cc1cccc(OCCSc2nc(N)cc(N)n2)c1", "Potency": "inactive"}
{"smiles": "CCCCN(CC)CCNC(=O)CN1C(=O)COc2ccc(S(=O)(=O)N3CCCC3)cc21", "Potency": "inconclusive: 11.7 µM [inhibitor, single point]"}
{"smiles": "CC(C)c1ccc(N(C(=O)c2ccc3c(c2)OCO3)C2C=CS(=O)(=O)C2)cc1", "note": "(configuration not stated)", "Potency": "inconclusive: 18.5 µM [inhibitor, single point]"}
{"smiles": "CN(C)/C=C(\\C(=O)c1ccc(F)cc1F)c1nnnn1-c1ccccc1", "Potency": "inactive"}
{"smiles": "CNC(=O)c1c(NC(=O)c2cc(-c3cc(C)c(C)cc3O)n[nH]2)sc2c1CCCC2", "Potency": "inconclusive: 2.62 µM [inhibitor, single point]"}
{"smiles": "CNC(=O)c1cccc(N2CCCC2=O)c1", "Potency": "inactive"}
{"smiles": "Cc1ccc(C(=O)Nc2ccc(N3CCN(C)CC3)nc2)cc1", "Potency": "inconclusive: 16.5 µM [inhibitor, partial curve, poor fit]"}
{"smiles": "CC(C)(C)c1cc(CP(=O)(c2ccccc2)c2ccccc2)cc(C(C)(C)C)c1O", "Potency": "inconclusive: 18.5 µM [inhibitor, single point]"}
{"smiles": "COc1cccc(C(=O)Nc2ccc(N3CCN(Cc4ccccc4)CC3)cc2)c1", "Potency": "inconclusive: 18.5 µM [inhibitor, single point]"}
{"smiles": "Nc1c(Cl)cc(C2=NCCn3nc4cc(C(F)(F)F)ccc4c32)cc1Cl", "Potency": "inconclusive: 18.5 µM [inhibitor, single point]"}
{"smiles": "O=C(CCNC(=O)c1ccccc1Cl)Nc1cccc(S(=O)(=O)N2CCCCC2)c1", "Potency": "inconclusive: 2.62 µM [inhibitor, partial curve, poor fit]"}
{"smiles": "COc1ccccc1C1c2[nH]c3ccccc3c2CCN1Cc1cnc(C)s1", "note": "(configuration not stated)", "Potency": "inconclusive: 18.5 µM [inhibitor, single point]"}
{"smiles": "COc1cccc(NC(=O)CN(c2ccc3c(c2)OCO3)S(C)(=O)=O)c1", "Potency": "inconclusive: 8.28 µM [inhibitor, partial curve, poor fit]"}
{"smiles": "COc1cc(/C=N/Nc2ccc(F)cc2F)cc(OC)c1O", "Potency": "inconclusive: 10.4 µM [inhibitor, single point]"}
